Laboratory results from publication PMC12867876.

T1: Flag-CREG1 (cellular repressor of E1A-stimulated genes 1) (chicken) (UniProt Q5ZJ73)
T1 sequence: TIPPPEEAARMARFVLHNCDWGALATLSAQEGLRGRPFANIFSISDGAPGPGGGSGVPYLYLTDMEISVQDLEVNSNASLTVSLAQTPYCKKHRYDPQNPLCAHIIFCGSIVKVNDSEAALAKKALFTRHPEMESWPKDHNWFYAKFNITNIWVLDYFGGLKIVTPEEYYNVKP

B1: endogenous HSPD1 (heat shock protein family D (Hsp60) member 1) (protein, UniProt Q5ZL72 27-573)
chain: AKDVKFGADARALMLQGVDLLADAVAVTMGPKGRTVIIEQSWGSPKVTKDGVTVAKAIDLKDKYKNIGAKLVQDVANNTNEEAGDGTTTATVLARAIAKEGFEKISKGANPVEIRRGVMLAVDAITAELKKLSKPVTTPEEIAQVATISANGDQEIGNIISDAMKKVGRKGVITVKDGKTLNDELEIIEGMKFDRGYISPYFINTAKGQKCEFQDAYVLISEKKISSVQSIVPALEIANSHRKPLVIIAEDVDGEALSTLVLNRLKVGLQVVAVKAPGFGDNRKNQLKDMAIATGGAVFGEEGLSLNVEDIQPHDFGKVGEVIVTKDDTMLLKGKGEKAQIEKRIQEIIEQLEVTTSEYEKEKLNERLAKLSDGVAVLKVGGTSDVEVNEKKDRVTDALNATRAAVEEGIVPGGGCALLRCIPALDALKPANEDQKIGIEIIKRTLKIPAMTIAKNAGVEGSLIVEKILQSSSEVGYDAMLGEFVNMVEKGIIDPTKVVRTALMDAAGVASLLSTAEAVVTEVPKEEKEPAMGGMGGMGGGMGGGMF
B2: PHB (protein, UniProt P84173 1-272)
chain: MAAKVFESIGKFGLGLAVAGGVVNSALYNVDAGHRAVIFDRFRGVQDTVVGEGTHFLIPWVQKPIIFDCRSRPRNIPVITGSKDLQNVNITLRILFRPVTAQLPRIFTSIGEDYDERVLPSITTEILKSVVARFDAGELITQRELVSRQVSEDLTERAATFGLILDDVSLTHLTFGKEFTEAVEMKQVAQQEAERARFIVEKAEQQKKAAVISAEGDSKAAELIANSLATAGDGLIELRKLEAAEDIAYQLSRSRNITYLPSGQSVLLQLPQ

Target: T1, Flag-CREG1 (cellular repressor of E1A-stimulated genes 1) (chicken)
Assay: affinity purification with mass spectrometry; lysate (1000 μg) of Flag-CREG1 overexpressing DF-1 cells under viral infection; Flag antibody or IgG control with protein A/G beads overnight at 4 °C; 10% SDS-PAGE, silver staining, LC-MS/MS

Binder | binding
B1 | binds
B2 | binds

No constants are given. Whether binding was seen depends on the method and setting. Binding seen in cells or lysates may run through a third protein. A yes stands for co-enrichment or nearness to the bait. Other partners may have been found. Where a sequence is shown, tags or fusion partners need not be part of it.
